These are yes or no findings as the source states them, for the method shown. Some binding calls cover weakened binding; strength is not graded here.
What was measured:
[1] = target: human prostate specific membrane antigen (PSMA) on LNCaP prostate cancer cells (human) (UniProt Q04609); test: flow cytometry on LNCaP cells, FITC-labeled anti-human IgG detection
[2] = target: PSMA immunopurified from LNCaP cells (human) (UniProt Q04609); test: ELISA on PSMA purified from LNCaP cells
[3] = target: human prostate specific membrane antigen (PSMA) on LNCaP prostate cancer cells (human) (UniProt Q04609); test: flow cytometry on LNCaP cells
[4] = target: human prostate specific membrane antigen (PSMA) on LNCaP prostate cancer cells (human) (UniProt Q04609); test: flow cytometry on LNCaP cells, FITC anti-human IgG detection
[5] = target: PSMA immunopurified from LNCaP cells (human) (UniProt Q04609); test: ELISA on PSMA immunopurified from LNCaP cells, HRP goat anti-human IgG (kappa chain-specific) detection
[6] = target: PSMA immunopurified from LNCaP cells (human) (UniProt Q04609); test: ELISA on immunopurified PSMA, antibody from 5 ug/ml in 1:2 dilutions

Sequences of proteins named here, by UniProt entry; tags and fusion partners are left off.
UniProt Q04609: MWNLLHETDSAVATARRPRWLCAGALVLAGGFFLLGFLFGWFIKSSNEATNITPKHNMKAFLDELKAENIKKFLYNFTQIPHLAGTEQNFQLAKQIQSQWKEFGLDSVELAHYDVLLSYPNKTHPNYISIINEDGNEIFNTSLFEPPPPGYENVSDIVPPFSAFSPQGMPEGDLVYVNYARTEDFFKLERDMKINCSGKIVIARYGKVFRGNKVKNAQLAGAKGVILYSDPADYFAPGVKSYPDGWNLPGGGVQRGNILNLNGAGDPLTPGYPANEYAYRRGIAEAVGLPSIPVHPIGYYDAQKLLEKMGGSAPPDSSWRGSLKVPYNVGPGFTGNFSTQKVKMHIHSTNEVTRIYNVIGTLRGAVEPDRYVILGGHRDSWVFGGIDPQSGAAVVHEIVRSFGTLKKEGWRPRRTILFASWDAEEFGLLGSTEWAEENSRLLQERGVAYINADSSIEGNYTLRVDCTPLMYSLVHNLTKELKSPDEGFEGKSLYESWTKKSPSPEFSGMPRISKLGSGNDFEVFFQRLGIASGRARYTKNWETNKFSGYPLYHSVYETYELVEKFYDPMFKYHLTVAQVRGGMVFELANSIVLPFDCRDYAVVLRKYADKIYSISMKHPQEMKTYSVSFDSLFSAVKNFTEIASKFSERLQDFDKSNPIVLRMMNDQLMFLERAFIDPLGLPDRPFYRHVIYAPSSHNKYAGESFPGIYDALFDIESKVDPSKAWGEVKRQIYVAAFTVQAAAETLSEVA

binding [1]: binds
binding [2]: binds
binding [3]: binds
binding [4]: binds
binding [5]: binds
binding [6]: binds
B1: anti-PSMA human monoclonal antibody 2F5 (antibody, V domains shown)
VH: EVQLVQSGAEVKKPGESLKISCKGSGYSFTSNWIGWVRQMPGKGLEWMGIIYPGDSDTRYSPSFQGQVTISADKSISTAYLQWNSLKASDTAMYYCARQTGFLWSFDLWGRGTLVTVSS
VL: AIQLTQSPSSLSASVGDRVTITCRASQDISSALAWYQQKPGKAPKLLIYDASSLESGVPSRFSGSGSGTDFTLTISSLQPEDFATYYCQQFNSYPLTFGGGTKVEIKI

Source: US20090297438A1, “Human Monoclonal Antibodies to Prostate Specific Membrane Antigen (PSMA)” (priority 2005, published 2009)
